In US20240115706A1:
Where a chain is given by its changes, count along the chain named. These are yes or no findings as the source states them, for the method shown. Some entries that bind do so weakly or less than the wild type.

B1: scFv A02 (scFv)
scFv: EVQLVQPGAEVKKPGSSVKVSCKASGGTLSSYAISWVRQAPGQGLEWMGRIIPILGITNYAQKFQGRVTITADKSTSTAYMELSSLRSEDTAVYFCARDQRPASMDVWGQGTLVTVSSGGGGSGGGGSGGGASQSELTQPASVSGSPGQSITISCTGTSSDVGGYIYVSWYQQHPGKVPKLMIHDVSHRPSGVSNRFSGSRSGNTASLTISGLQAEDEADYFCSSYAGSNNYVFGTGTKVTVL
B2: scFv A03 (scFv)
scFv: QVQLVQSGAEVKKPGSSVKVSCKASGGTFSSYTISWVRQAPGQELEWMGRIIPILGIANYAQKFQGRVTITADKSTSTAYMELSSLRSEDTAVYYCARDYSSSWNSMDVWGQGTLVTVSSGGGGSGGGGSGGGASQSGLTQPPSASGSPGQSVTISCTGTSSDIGYYHYVSWYQQHPGKAPKLMIYEDSKRPSGISNRFSGSKSGTTASLTVSGLQAEDEAHYYCSSFTSRSTWVFGGGTQLTVL
B3: scFv A04 (scFv)
scFv: B1 scFv with A227T, G228S, V233Y
B4: scFv A05 (scFv)
scFv: QVQLVQSGAEVKKPGSSVKVSCKASGGTFSSYTITWVRQAPGQGLEWMGRIIPVLGIANYAQKFQGRVTITADKSTSTAYMELSSLRSEDTAVYYCARDYSSSWNSMDVWGQGTLVTVSSGGGGSGGGGSGGGASQSGLTQPRSVSGSPGQSVTISCTGTSSDVGGYNYVSWYQQHPGKAPKLMIYDVSKRPSGVPDRFSGSKSGNTASLTVSGLHAEDEADYYCSSYAGSNNFVFGTGTKVTVL
B5: scFv A06 (scFv)
scFv: B4 scFv with S30G, T35S, V54I, G166A, D187E, G201A, H216Q, F234W, T238G, V242L
B6: scFv A12 (scFv)
scFv: B1 scFv with A227T, G228S
B7: scFv B01 (scFv)
scFv: EVQLVQPGAEVKKPGSSVKVSCKASGGTLSSYAISWVRQAPGQGLEWMGRIIPILGITNYAQKFQGRVTITADKSTSTAYMELSSLRSEDTAVYFCARDQRPASMDVWGQGTLVTVSSGGGGSGGGGSGGGASQSGLTQPASVSGSPGQSITISCTGTSSDVGGYNYVSWYQQHPGKAPKLMIYEVSNRPSGVSNRFSGSKSGNTASLTISGLQAEDEADYYCSTVTSLSTYVFGTGTKLTVL
B8: scFv B07 (scFv)
scFv: EVQLVQSGAEVKRPGSSVKVSCKASGYTFTSYYMHWVRQAPGQGLEWMGIINPSGGSTSYAQKFQGRVTMTRDTSTSTVYMELSSLRSEDTAVYYCAAGTYSSGWTIDYWGQGTTVTVSSGGGGSGGGGSGGGASDIVMTQSPLSLPVTLGQPASISCRSSQSLVYTDGNTYLNWFQQRPGQSPRRLIYKVSNRDSGVPDRFSGSGSGTDFTLKISRVEAEDVGIYYCMHSKQWPPTFGGGTKVEIK
B9: scFv B12 (scFv)
scFv: QVQLVESGGGLVKPGGSLRLSCAASGFTFSSYSMNWVRQAPGKGLEWVSVIYSGGSTHYADSVKGRFTISRHNSKNTLYLQMNSLRAEDTAVYYCARGAGTLNAFDIWGQGTTVTVSSGGGGSGGGGSGGGASQSGLTQPPSTSGSPGQSVTISCTGTSSDVGAYSYVSWYQQHPGKAPKLLIYAVTKRPSGVPDRFSGSKSGNTASLTVSGLQDEDEADYYCSSFAGGSTLVFGGGTKLTVL
B10: scFv C02 (scFv)
scFv: QVQLVQSGAEVKKPGSSVKVSCKASGGTFSSYTISWVRQAPGQGLEWMGRIIPILGIANYAQKFQGRVTITADKSTSTAYMELSSLRSEDTAVYYCARDRSYNWLDPWGRGTLVTVSSGGGGSGGGGSGGGASQSALTQPVSVSGSPGQSITISCTGTISDVGDYNYVSWYQQHPGKAPKLMIYDVNNRPSGVSNRFSGSKSGNTASLTISGLQAEDEADYYCSSYTSSSTLVFGGGTKLTVL
B11: scFv A08 (scFv)
scFv: EVQLLESGGGLVQPGGSLRLSCAASGFTFSSYWMSWVRQAPGKGLEWVANIKQDGSEKYYVDSVKGRFTISRDNAKNSLYLQMNSLRAEDTAVYYCAKAPWYSSSPTPYGMDVWGQGTLVTVSSGGGGSGGGGSGGGASDIQMTQSPSSLSASVGDRVTITCQASQDISNYLNWYQQKPGKAPRRLIYGASTLMSGVPSRFSGSGSGTDFTLTISSLQPEDFATYYCQQSYSTPLTFGGGTKVEIK

Molecular target: human GUCY2C-rCD4 fusion protein (Homo sapiens (human); Rattus norvegicus)
Experiment: ELISA (DELFIA)

binding, binds:
B1
B2
B3
B4
B5
B6
B7
B8
B9
B10

Molecular target: human GUCY2C-rCD4 fusion protein (Homo sapiens (human); Rattus norvegicus)
Experiment: ELISA (DELFIA); ELISA, statement on all 18 scFvs: binds

binding, binds:
B11
